Reference: patent publication US20210177847A1, “Compounds for treatment of diseases related to DUX4 expression” (Facio Intellectual Property B.V., priority 2017, published 2021)

Tested on: primary FSHD myotubes
Assay: Myotube fusion / differentiation readout (fusion index) in primary FSHD myotubes, 15 h or 72 h treatment
Type: cell-based, human
Source text: A quantitative assay readout was developed based on script-based image analysis. […] To analyse the images, an automated script was developed, enabling the detection of nuclei, myotube borders and DUX4 signals, with the script also detecting artefacts to reduce false positive signals. The script enabled multiple validated readouts including the number of DUX4 positive nuclei and nuclei clusters, the fusion index, myotube area, myotube width and myotube skeleton length (see FIG. 2). Additionally, the total nuclei count was included as a measure of cell loss or compound toxicity.
Compounds are administered either 15 h before fixation, resembling the original screening protocol, or 72 h before fixation (grey arrow). In the latter case, compounds are present during the whole differentiation process.

COc1ccc(CC(C)NCC(O)c2ccc(O)c(NC=O)c2)cc1 (stereo not shown) [formoterol]
effect on fusion process and differentiation of myoblasts into myotubes: no myotube formation can be observed
